The target in the experiment is GST-Him (Drosophila) (UniProt Q9VWX6). The experiment is described as follows: pull-down; GST fusion proteins (GST-Him, GST-HimΔWRPW, GST alone) as baits, radiolabelled Groucho as input; autoradiograph of a protein gel.

Protein sequences, listed by entry. Tags and fused reporters are not part of them. Lines headed by an entry give the natural chain unless they say otherwise; changes in a name come on top.
UniProt Q9VWX6: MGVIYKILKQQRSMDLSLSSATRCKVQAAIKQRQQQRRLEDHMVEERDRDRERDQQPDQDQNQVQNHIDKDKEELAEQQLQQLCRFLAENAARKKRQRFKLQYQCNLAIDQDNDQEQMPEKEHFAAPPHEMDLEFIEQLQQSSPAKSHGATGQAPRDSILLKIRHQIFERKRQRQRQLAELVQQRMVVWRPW
UniProt P16371: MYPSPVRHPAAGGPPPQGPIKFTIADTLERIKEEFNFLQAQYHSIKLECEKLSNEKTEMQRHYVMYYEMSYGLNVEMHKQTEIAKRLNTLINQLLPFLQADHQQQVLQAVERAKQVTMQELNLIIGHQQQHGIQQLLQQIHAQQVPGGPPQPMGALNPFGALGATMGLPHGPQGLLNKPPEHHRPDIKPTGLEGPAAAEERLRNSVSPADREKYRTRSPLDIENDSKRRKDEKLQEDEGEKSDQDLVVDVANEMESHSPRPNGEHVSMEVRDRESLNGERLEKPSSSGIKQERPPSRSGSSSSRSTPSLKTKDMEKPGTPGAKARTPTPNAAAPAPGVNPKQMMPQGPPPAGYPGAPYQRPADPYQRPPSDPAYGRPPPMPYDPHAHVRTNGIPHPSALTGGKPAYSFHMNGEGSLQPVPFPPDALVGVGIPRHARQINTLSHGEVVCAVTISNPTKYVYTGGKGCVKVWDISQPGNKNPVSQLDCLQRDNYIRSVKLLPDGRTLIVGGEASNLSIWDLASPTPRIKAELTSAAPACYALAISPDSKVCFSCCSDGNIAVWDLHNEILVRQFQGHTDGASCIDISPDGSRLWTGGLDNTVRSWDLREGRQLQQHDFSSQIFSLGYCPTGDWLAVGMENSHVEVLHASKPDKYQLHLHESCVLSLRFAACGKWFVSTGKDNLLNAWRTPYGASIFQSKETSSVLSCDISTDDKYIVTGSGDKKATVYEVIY

No constants are given. Whether binding was seen depends on the method and setting. Binding seen in cells or lysates may run through a third protein. Binding can be weak; no strength is given.

In the case of Groucho (from UniProt P16371 1-730), the binding result was “binds”.

(Values after PMC1955682.)
